In patent US6103697 (dated 2000):

Test: general procedure: peptide synthesis; crosslinked polystyrene grafted with polyethyleneglycol chains, p-hydroxymethylphenoxyacetic acid linker, Fmoc-Ile prelo; HOAt esters prepared in situ with 1,3-diisopropylcarbodiimide
Conditions: whole synthesis

H-Gly-Pro-Cys-Ile-OH
isolated mass: 8.5 mg
crude mass (scale 81 μmol): 21 mg
isolated yield (scale of the general procedure 81 μmol): 55%
